Measured values as given in patent publication US8658591B2, “Multi-LEU peptides and analogues thereof as selective PACE4 inhibitors and effective antiproliferative agents” (priority 2008, dated 2014).
Some results were stated once for a whole list of compounds, not compound by compound. At least one peptide structure holds a part that was inferred or is arguable (an end, a ring closure or a residue). No end group written: not given here.

Target: T1, PC7 (Homo sapiens, UniProt Q16549)
T1 sequence (Q16549 142-785): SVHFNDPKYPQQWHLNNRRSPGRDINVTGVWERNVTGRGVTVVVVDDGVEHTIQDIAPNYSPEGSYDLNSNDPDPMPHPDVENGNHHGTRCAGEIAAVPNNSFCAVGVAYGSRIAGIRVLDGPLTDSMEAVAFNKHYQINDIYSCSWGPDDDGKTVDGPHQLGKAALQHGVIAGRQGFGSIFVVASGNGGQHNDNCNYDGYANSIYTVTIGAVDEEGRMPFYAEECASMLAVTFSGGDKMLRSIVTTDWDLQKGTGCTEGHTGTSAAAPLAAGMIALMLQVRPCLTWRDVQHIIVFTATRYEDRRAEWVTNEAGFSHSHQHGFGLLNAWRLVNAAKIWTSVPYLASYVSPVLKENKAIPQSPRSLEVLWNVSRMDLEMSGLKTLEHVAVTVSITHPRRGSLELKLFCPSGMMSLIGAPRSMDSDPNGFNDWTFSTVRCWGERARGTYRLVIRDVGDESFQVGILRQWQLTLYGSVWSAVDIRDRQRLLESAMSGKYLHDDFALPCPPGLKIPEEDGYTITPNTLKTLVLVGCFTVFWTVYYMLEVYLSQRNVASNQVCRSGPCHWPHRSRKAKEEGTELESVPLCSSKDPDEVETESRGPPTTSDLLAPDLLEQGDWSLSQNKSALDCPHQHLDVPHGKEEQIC
Test: Enzyme inhibition assay, fluorogenic substrate, PC7
Type: biochemical
Details: 20 mM Bis-Tis pH 6.5, 1 mM CaCl2, substrate 250 μM, 37° C.
Protocol: Enzyme inhibition assays for furin (FIG. 5D) were performed in 100 mM Hepes pH 7.5, 1 mM CaCl2, 1 mM β-mercaptoethanol, 0.5 μg/μL BSA. Assays for PC2 (FIG. 5E) were performed in 20 mM Bis-Tris pH 5,7, 1 mM CaCl2, 0.1% Brij-30. Assays for PC1/3, PC4, PACE4, PC5/6 and PC7 (FIGS. 5F, G, A, B and C respectively) were performed in 20 mM Bis-Tis pH 6.5, 1 mM CaCl2. All assays were performed with the substrate pyroGlu-Arg-[…]-Lys-Arg-methyl-coumaryl-7-amide (SEQ ID NO: 33) (PyrRTKR-MCA (SEQ ID NO: 34)) (Bachem, CA) at 100 μM for furin, PC1/3, PC4, PACE4 and PC5/6, 200 μM for PC2 and 250 μM for PC7. Assays were carried out at 37° C. for 30-60 min and real-time fluorescence was measured with an excitation wavelength of 370 nm and an emission wavelength of 460 nm using a Gemini XS™ 96-well spectrofluorometer and SoftMaxPro4™ software (Molecular Devices, CA). Inhibitory peptides were added to the enzymes at decreasing concentrations from 100 μM to 50 nM and incubated 5 minutes prior to the addition of substrate.

## LLLLLLRVKR-NH2 [6 Leu]
  Ki: 35 to 50 nM
